These are yes or no findings as the source states them, for the method shown. Binding calls can cover weak binding; strength is not graded here.
Biological target: Recombinant human His-PPARγ-LBD fragment (ligand binding domain), not phosphorylated (human)
Assay: AlphaScreen or HTRF; in vitro phosphorylation reaction first (LBD, CDK5/p25, with or without ATP, 30°C 30 min), 2 μM Chi, Ros or Pio added in or after the reaction, then the conventional AlphaScreen procedure; fold change with agonist over vehicle (DMSO); both purified

binding: binds
Binder: SPKKKENNALLRYLLDRDD (biotin on the N-terminus) [SRC3-3 (nuclear receptor coactivator 3) biotinylated peptide motif]
